For at least one compound, name, drawing or mass did not settle the structure.
Assays:
[1] = system: human parainfluenza virus (HPIV3); assay type: cell-based; conditions: HMO at 1 mg/mL
[2] = system: H1N1 influenza virus; assay type: cell-based; conditions: HMO at 1 mg/mL

CC(=O)N[C@H]1[C@H]([C@H](O)[C@H](O)CO)OC(O)(C(=O)O)C[C@@H]1O (some centres unmarked) [SA, sialic acid]
anti-viral activity against HPIV3 [1]: significantly inhibits
anti-viral activity against H1N1 influenza virus [2]: significantly inhibits

— patent US11464793B2, “Nutritional formulations including human milk oligosaccharides and antioxidants and uses thereof” (priority 2010, dated 2022)
